At least one compound was matched to its structure with a doubt left.
Target: GABAA receptors (benzodiazepine site, Ro15-1788 binding sites), rat cortex
Assay: Ro15-1788 competition binding assay, rat cortex membranes
Conditions: displacement of 3H Ro15-1788, read-out: Ro15-1788 binding, K1
Method: Rat cortex membranes are prepared by homogenizing one or two previously frozen rat cortexes in 30 ml of 25 mM Tris Buffer, pH 7.4. The homogenate is centrifuged for 10 minutes at 500× g. The supernatant is then transferred to a clean centrifuge tube and the pellet discarded. The supernatant is spun for 20 minutes at 48,000× g. The supernatant from this spin is discarded and the pellet is resuspended in 30 ml of 25 mM Tris Buffer, pH 7.4 and centrifuged for an additional 10 minutes at 48,000× g. The supernatant from the final spin is discarded and the membrane pellet is resuspended in 100 mL Tris buffer per gram of cortex used.
The cortex membrane preparation is used to perform either percent inhibition or competition binding assays. In order to determine percent inhibition 300 μl of resuspended membranes are mixed with 200 μl ^3H labeled Ro15-1788 (final concentration 2.5 nM) and incubated for 1 hour on ice in the presence of 2 μl test compound in DMSO (final concentration 4 μM). Membranes are harvested onto untreated filtermats. The filtermats are dried and the ^3H Ro15-1788 signal is counted in a scintillation counter. Nonspecific binding is determined by displacement of ^3H Ro15-1788 with 10 μM Diazepam (RBI) or any other compound known to bind tightly at the benzodiazepine site.
K1 values are calculated according to the Cheng-Prussof equation.

## O=C1C2C=Nc3ccccc3C2=NN1c1ccccc1 (stereo not shown) [CGS 8216, reference compound]
  Ki: 0.2 nM
